The values that follow come from the supplement of paper PMC10338343.

± gives the standard deviation. This is a selection; strong and weak results do not stand in their true shares. Many entries were measured with a wide error.

In this test the test system is MIWI (PIWIL1) piRISC loaded with piRNA #1 (30 nt). The test can be described thus: pre-steady-state target cleavage rate (min^-1); MIWI and MILI are mouse PIWI proteins and EfPiwi is from a freshwater sponge; tags in brackets are library labels; higher = faster piRNA-guided slicing of the target. The conditions noted are these: guide: piRNA #1 5'p-UGAGGUAGUAGGUUGUAUAGUAUCCAGAGG; auxiliary factor: 500 nM mouse GTSF1. The gist of the method:
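Sequencing of uncleaved targets, normalised to depth and to weakly complementary targets, was the readout of this Cleave-'n-Seq assay. A transcribed, DNA-blocked target RNA library (0.1 nM) was mixed with 1 nM active affinity-purified piRISC carrying one synthetic guide, with or without 500 nM GTSF1 partner protein, in HEPES–potassium acetate buffer at 33 °C for 0–8 or 0–960 min. Three trials were pooled, k3 was capped at 0.0001 min^-1, and a burst-and-steady-state fit gave the pre-steady-state cleavage rate.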
Regarding GGAGACCUAUGAAUGACAACCUACUACCUCA, the “pre-steady-state target cleavage rate” value turned out to be 0.000511 ± 0.0097. To GGAGACCUAUGAUAUCAACCUACUAACUCA belongs 0.000383 ± 0.005; to GGAGACCUAUGAUAACAACCAACUAGCUCA, 0.00012 ± 0.019; to GGAGACCUAUGAAUACUACCUACUACCUGA, 0.000153 ± 0.012. To GGAGACCUAUGAUAUCCACCUACUACCUCA belongs 0.000171 ± 0.017; to GGAGACCUAUGAUUAGUUCCUACUACCUCA, 0.000797 ± 0.0055. In the case of GGAGACCUAUGAUAUGUUGGUACUACCGCA it was 0.0003 ± 0.023. For the sequence GGAGACCUAUGAUUACAACCUACUACCGUCA, the “pre-steady-state target cleavage rate” value is 0.00105 ± 0.0039.

For GGAGACCUAUGAUUACAACCUACUUCCACA, the “pre-steady-state target cleavage rate” value turned out to be 0.000476 ± 0.0043. In the case of GGAGACCUAUGAAUACAACCUACUUCCACA it was 0.000191 ± 0.0084; in that of GGAGACCUAUGAUAACAUGCUACUACCUCA, 0.000428 ± 0.0063.

GGAGACCUAUGAUAUCAACCUACUACCUGCA: the “pre-steady-state target cleavage rate” value is 0.000485 ± 0.0074. To GGAGUGGAUACUAUACAACCGUACUACCUCA belongs 0.000897 ± 0.0065; to GGAGACCUAUGAUAUCAACCAUACUACCUCA, 0.000229 ± 0.01. For GGAGACCUAUGAUAACAACCUUACUACCUCA, the “pre-steady-state target cleavage rate” value stood at 0.000223 ± 0.011. In the case of GGAGACCUAUGAUAACAACCUGCUACCUCA it was 0.000806 ± 0.0048; in that of GGAGACCUAUCUAUAAACCUACUACCUCA, 0.000948 ± 0.0051; in that of GGAGACCUAUGAUAUCAACCUACUCACCUCA, 0.000269 ± 0.0071. To GGAGACCUAUGAUAUGUACCACUACCUCA belongs 0.00052 ± 0.0038. To “GGAGACCUAUGAUAACAACCUACUACCUCU [g2:g16:cont:t1U]” belongs 0.00186 ± 0.0046; to GGAGACCUAUGAUUACAACCUACUACGUGA, 0.000793 ± 0.0059. Regarding GGAGUGGAUACUAUACAACCUACUUCGUCA, the “pre-steady-state target cleavage rate” value was 0.00135 ± 0.0034. In the case of GGAGACCUAUCUAUACAACCUACUCCUCA it was 0.000787 ± 0.0057; in that of GGAGACCUAUGAUAUGUUCCUACUACCCA, 0.000132 ± 0.013. In the case of GGAGACCUAUGAUUACAACUCUACUACCUCA it was 0.000114 ± 0.018.

On to GGAGACCUAUGAUAUCACCUACUACCUCA, for which the “pre-steady-state target cleavage rate” value came to 0.000621 ± 0.0075. In the case of GGAGACCUAUGAAUACAACCUUCUACCUGA it was 0.000256 ± 0.0077; in that of GGAGACCUAUGAUUACAACCUACACCUCA, 0.000407 ± 0.013; in that of GGAGACCUAUGAAUACAACCUUCUACCACA, 0.000395 ± 0.0064. Take GGAGACCUAUGAUAUCAACCUACUACCUGA: the “pre-steady-state target cleavage rate” value was determined as 0.000168 ± 0.009.

With GGAGACCUAUGAUUACUACCUACUACCACA, the “pre-steady-state target cleavage rate” value came to 0.000195 ± 0.011. On to GGAGACGAUACUAUACGAACCUACUACCUCA, for which the “pre-steady-state target cleavage rate” value was determined as 0.00114 ± 0.007. In the case of GGAGACCUAUCUAUACAAUCCUACUACCUCA it was 0.000603 ± 0.0085. To GGAGACCUAUGUAUUCAACCAACUACCUCA belongs 0.000181 ± 0.015; to GGAGACCUAUGAUUACAACCAUCUACCUCA, 0.000212 ± 0.011; to GGAGACCUAUGAUAUGUUGCUACGUACCUCA, 0.000314 ± 0.015.

As to GGAGAGGAUACUAUACAACCUACUAGCUGA, the “pre-steady-state target cleavage rate” value came to 0.00182 ± 0.0039.

As for GGAGACCUAUGAUUACUUCCUACUACCUCA, the “pre-steady-state target cleavage rate” value came out at 0.000989 ± 0.0053.

Consider GGAGACCUAUGAUAUCGACCUACUACCUCA, for which the “pre-steady-state target cleavage rate” value was found to be 0.000172 ± 0.014. In the case of GGAGACCUAUGAUAUCAACCUAGAACCUCA it was 0.000163 ± 0.016.
